Some results were stated once for a whole list of compounds, not compound by compound.
Experiment: Concentration of 5-fluorouracil in blood after oral administration to rats (Table 3)
Format: in vivo
Details: oral 1 m.mol/kg

Compound | conversion to 5-fluorouracil in the living body
CCCCCCCCCCOc1ncc(F)c(=O)[nH]1 [Compound 26, 2-(n-Decyl)-5-fluorouracil] | all converted to 5-fluorouracil in the living body
Fc1cnc(Oc2ccccc2)nc1Oc1ccccc1 [Compound 29, 2,4-Diphenyl-5-fluorouracil] | all converted to 5-fluorouracil in the living body
Cc1ccc(S(=O)(=O)n2cc(F)c(=O)[nH]c2=O)cc1 [Compound 15, 1-(p-Toluenesulfonyl)-5-fluorouracil] | all converted to 5-fluorouracil in the living body
CSCn1c(=O)c(F)cn(C2CCCO2)c1=O (stereo not shown) [Compound 19, 1-(2-Tetrahydrofuryl)-3-methylthiomethyl-5-fluorouracil] | all converted to 5-fluorouracil in the living body
O=c1[nH]c(Oc2ccccc2)ncc1F [Compound 22, 2-Phenyl-5-fluorouracil] | all converted to 5-fluorouracil in the living body
O=c1[nH]c(=O)n(CC2CCCO2)cc1F (stereo not shown) [Compound 14, 1-Tetrahydrofurfuryl-5-fluorouracil] | all converted to 5-fluorouracil in the living body
CCCCCCCCCCn1c(=O)c(F)cn(C2CCCO2)c1=O (stereo not shown) [Compound 20, 1-(2-Tetrahydrofuryl)-3-(n-decyl)-5-fluorouracil] | all converted to 5-fluorouracil in the living body
CC(C)(C)Oc1ncc(F)c(OC(C)(C)C)n1 [Compound 28, 2,4-di(tert-Butyl)-5-fluorouracil] | all converted to 5-fluorouracil in the living body
CCCCCCCCCCCCCCCCOc1ncc(F)c(=O)[nH]1 [Compound 25, 2-Cetyl-5-fluorouracil] | all converted to 5-fluorouracil in the living body
O=c1[nH]c(=O)n(C2OCCCC2Cl)cc1F (stereo not shown) [Compound 13, 1-(3-Chlorotetrahydropyran-2-yl)-5-fluorouracil] | all converted to 5-fluorouracil in the living body
O=C(c1ccccc1)n1c(=O)[nH]cc(F)c1=O [Compound 17, 3-Benzoyl-5-fluorouracil] | all converted to 5-fluorouracil in the living body
O=c1[nH]c(OCC2CCCO2)ncc1F (stereo not shown) [Compound 24, 2-Tetrahydrofurfuryl-5-fluorouracil] | all converted to 5-fluorouracil in the living body
CCCCCCOc1ncc(F)c(=O)[nH]1 [Compound 27, 2-(n-Hexyl)-5-fluorouracil] | all converted to 5-fluorouracil in the living body
N#CCCn1cc(F)c(=O)[nH]c1=O [Compound 16, 1-(2-Cyanoethyl)-5-fluorouracil] | all converted to 5-fluorouracil in the living body
O=C(c1ccccc1)n1c(=O)c(F)cn(C2CCCO2)c1=O (stereo not shown) [Compound 18, 1-(2-Tetrahydrofuryl)-3-benzoyl-5-fluorouracil] | all converted to 5-fluorouracil in the living body
CCC(C)Oc1ncc(F)c(=O)[nH]1 (stereo not shown) [Compound 21, 2-(sec-Butyl)-5-fluorouracil] | all converted to 5-fluorouracil in the living body

— patent US4481203A, “Composition containing 1-(n-hexylcarbamoyl)-5-fluorouracil and uracil” (priority 1977, dated 1984)
